US10383333B2, “Carbamate compound and use thereof” (SUMITOMO CHEMICAL COMPANY, LIMITED, priority 2015, dated 2019)
Some of these results come from one statement about several compounds together.

System: cucumber powdery mildew fungus (Sphaerotheca fuliginea, a QoI-resistant strain, cytochrome b position 143 glycine to alanine)
Type: in vivo
Conditions: 500 ppm foliar spray on cucumber (Sagami Hanjiro), assessed after 8 days, formulated per Formulation Example 6

SMILES	area of the lesion relative to untreated cucumber [%]
COC(=O)Nc1ccccc1COc1ccc(-c2ccc(F)c(C)n2)cc1C [Present Compound 1]	≤ 30
COC(=O)Nc1cccc(C)c1COc1cc(C)c(-c2ccc(F)cn2)cc1C [Present Compound 11]	≤ 30
